Primary screen of a compound library

Mtb growth Cornell: 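Whole-cell assay for inhibitors of Mycobacterium tuberculosis growth, labelled Cornell in the record; the read-out is not stated. The concentration is filed as 10 mM, unlikely as a test dose, so the dose is not known. The record gives no direction; compounds strong in two other growth screens of this library score well above the rest, so higher reads as stronger inhibition. About 53,000 compounds were tested under these conditions; 1.7% (about 900) showed 50% or more at least once.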
Mtb heat-shock: 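Assay on Mycobacterium tuberculosis, filed only as a heat shock assay from Cornell; the read-out is not stated. The concentration is filed as 10 mM, unlikely as a test dose, so the dose is not known. Higher reads as stronger inhibition (inferred: compounds with an IC50 in retests scored well above the rest). Of about 69,000 compounds tested this way, about 930 (1.4%) reached 50% or more in at least one test.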

Results are given as percent effect. The record does not define 0% and 100%; most values in the screen are far below 50% and negative numbers occur (in some assays of this library far below -100). Compounds were drawn at random from those tested, without regard to their results. A dash means the value is not listed here; it may have been measured.

structure,Mtb growth Cornell,Mtb heat-shock
O=S(=O)(NC1CCCCC12OCCO2)c1cc(Cl)cc(Cl)c1 (stereo unspecified),16.3,0.1544
Cc1nn(C)c(Cl)c1C1CCCN1C(=O)c1cc(C2CC2)on1 (stereo unspecified),1.774,6.648
N#Cc1cc2c(nc1SCc1cc(O)nc(O)n1)CCCC2,-6.367,-11.28
COc1cccc(C(C(=O)O)N2CCCN(c3ccnc(C)c3)CC2)c1 (stereo unspecified),2.608,6.171
CC(C)CCN1CCN(C(=O)c2c[nH]nn2)CC1,-,-0.6117
COc1ccc(Br)cc1CN(C)C(C)c1nc(C(C)C)no1 (stereo unspecified),-,10.54
COCC(=O)N1CCC(c2cc(-c3ccc(C)cc3)n[nH]2)C1 (stereo unspecified),-32.01,-15.07
OCCCN(CCn1cncn1)c1ccccc1,-44.33,-10.32
CCS(=O)(=O)N1CCC2(CCC2NC(=O)c2ccn(C)c2)CC1 (stereo unspecified),-5.81,5.457
CC(=O)c1c(F)cccc1N1CCC(NS(=O)(=O)c2ccccc2)CC1,7.673,12.32
CCc1c(C)sc2nc3n(CC(N)=O)nc(SC)n3c(=O)c12,12.45,21.39
[H][C@]12CCN(C(N)=O)[C@@]1([H])CC[C@@H](COCC(=O)N1CCCC1)O2,-33.66,-25.06
COCCCNC(=O)c1ccccc1-n1cc(CN(C)C)cn1,-28.74,-17.72
Cc1cccc(C(=O)N2CCN(S(C)(=O)=O)[C@@H](C)C2)c1Cl,15.15,-42.05
Cc1cccn2c(=O)cc(OC(=O)c3ccccc3)nc12,4.697,-4.325
CC(C)OCCSCCn1nc2ccccn2c1=O,0.3409,2.019
CC(C)(CC(=O)Nc1cccc(Oc2ccccn2)c1)C(=O)O,-19.67,-7.284
O=C(O)CC(O)(CC(=O)O)C(=O)O.c1ccc(CC2CCN(Cc3ccnc(-c4cccnc4)n3)CC2)cc1,-2.848,12.98
Cc1cccc(NC(=O)c2cncc(C3CCNCC3)n2)n1,5.795,16.31
Cc1ccc(NCc2cnc3n2CCN(c2ncccn2)CC3)nn1,-,-31.3
O=C(c1ccccn1)N1CCC(Oc2cccnc2)CC1,-17.68,18.42
CCN1CCC(NC(=O)Cc2csc(C(C)(C)C)n2)CC1,-23.49,1.234
CCn1ccnc1CN1CCC(Oc2cccc(F)c2)(C(=O)O)CC1,11.12,11.09
COc1cccc(CN(C(=O)NC2CC2)C2CCC(O)CC2)c1 (stereo unspecified),22.94,27.86
O=C(O)C(F)(F)F.O=C(c1ccccn1)N1CCC2(CC1)COC(COCC1CCCC1)C2 (stereo unspecified),21.52,-23.68
CC(=O)N(Cc1ncc(C(C)C)o1)C1CCN(Cc2cc(C)no2)C1 (stereo unspecified),-,0.2668
CCS(=O)(=O)NCC(=O)Nc1cc(CC(C)(C)C)n[nH]1,-,3.115
CCN1CCc2[nH]cnc2C12CCN(c1ncc(C(=O)O)cc1Cl)CC2,-49.17,-2.993
CN1C(=O)CC(c2cnn(C)c2)C12CCN(C(=O)c1ccco1)CC2 (stereo unspecified),10.39,-29.88
CN(Cc1nnc(-c2ccco2)o1)C(C(N)=O)c1cccc(F)c1 (stereo unspecified),13.02,9.18
[H][C@@]12CN(C(=O)c3ccccn3)C[C@]1([H])OCC(=O)N2CC1CCCCC1,6.816,-12.93
CC(C)Nc1nc2c(c(NC3CC3)n1)CN(C(=O)c1ccsc1)CC2,32.67,8.038
CC(C)CC(=O)N1CCC2(CC1)OC(C(N)=O)Cn1ccnc12.O=C(O)C(F)(F)F (stereo unspecified),-8.847,6.402
Cl.Cn1cccc1C(=O)N1CCc2c(CNS(C)(=O)=O)cncc2C1,27.13,-26.5
NC(=O)C1CCN(S(=O)(=O)c2cnn(-c3ccccc3)c2)C1 (stereo unspecified),-,-16.15
Cc1nc2ccc(C(=O)N3C[C@@H](O)[C@H](N4CCOCC4)C3)cc2[nH]1,-53.49,-22.46
Cc1ccc(C(=O)NCC(O)c2cccc(F)c2)c(=O)[nH]1 (stereo unspecified),-39.83,-10.2
Nc1cccnc1N1CCC(c2ccccc2)CC1,9.381,-17.62
Cc1noc2ncc(S(=O)(=O)Nc3cc(C(C)(C)C)n[nH]3)cc12,-,-1.887
NCCn1nc(C2CCN(Cc3ccc(Cl)c(Cl)c3)C2)c2nccnc21 (stereo unspecified),-4.123,0.2085
CC(=O)N1CCN(CCNC(=O)c2nc3ccccc3c(=O)[nH]2)CC1,2.43,-28.49
Cc1cc(C(=O)NCc2ccnc(OCC(F)(F)F)c2)on1,-,4.875
COCCNC(=O)Nc1cc2c(cc1SC)OCCO2,-,10.97
CN(Cc1cnn(C)c1)S(=O)(=O)N1CCCCC1,-46.99,15.65
CC(C)N(CCCNC(=O)C1CCCN(C(N)=O)C1)S(C)(=O)=O (stereo unspecified),4.49,11.53
CCc1[nH]ncc1C(=O)N1CCCN(Cc2nccn2C(C)C)CC1,-,10.15
CC(=O)N1CCCCC1c1nc(N)ncc1-c1ccccc1 (stereo unspecified),-,-0.6679
Cc1nc(C)c(Cn2ccnc2-c2cc(CN(C)C)cs2)s1,-,-11.48
COc1ccc(NC(=O)NC(C)c2nc[nH]n2)cc1 (stereo unspecified),21.44,-2.077
c1ccc2oc(N3CCC(c4nncn4C4CC4)CC3)nc2c1,-,-11.75
CO[C@@H]1CC[C@@H](NS(=O)(=O)c2cn(C)nc2C)[C@H]1O,50.32,9.927
O=C(c1cc(-n2cccn2)ccn1)N1CCOc2ccc(F)cc21,-,-25.42
Cc1nn(C)c(N(C)C)c1CNCc1cnn(Cc2ccccc2)c1,-,17.17
Cc1cc(-c2cnn(CCNC(=O)C3CC3)c2C2CC2)on1,-,-1.703
Cc1ccc(-n2ccnc2)c(C(=O)NCCOCC(F)(F)F)c1,21.84,-3.694
[H][C@@]12CCCC[C@]1(O)CCN(c1ncc(C)c(-c3ccnn3C)n1)C2,-30.24,4.258
O=C(c1cc(C2CC2)[nH]n1)N1CCCC(n2cncn2)C1 (stereo unspecified),-0.3804,-7.958
CN(C)C(=O)c1nc(CN2C(=O)OC[C@@H]2c2ccccc2)no1,-9.974,-37.77
CC(=O)c1c(C)cc(C)c(CS(=O)(=O)c2nccn2C)c1C,-20.02,7.619
CC(C)Cn1cncc1-c1nc2c([nH]1)CCCNC2=O,-31.6,-31.45
Cc1nc(C2CCN2c2ncccn2)cc(N(C)C)n1 (stereo unspecified),15.59,-19.17
Cc1nn(C)c2c(N3CCN(C(=O)C4CCCO4)CC3)ncnc12 (stereo unspecified),-,8.495
COc1c(CNC(c2ccc(F)cc2)c2nccn2C)c(C)nn1C (stereo unspecified),-,-11.67
CC(C)CC(=O)N1CCN(c2cc(N(C)C)cnn2)CC1,10.58,1.872
CC(C)n1cc(N2CC(C(=O)N3CCN(C)CC3)CC2=O)cn1 (stereo unspecified),-10.6,-6.197
O=C(O)C(F)(F)F.[H][C@@]12CCN(Cc3cc(C)on3)C[C@]1([H])OCCN(c1ccsc1)C2=O,-25.95,-1.897
CCc1ncnc2c1CCN(S(=O)(=O)c1ccccc1)CC2,-5.513,31.32
Cc1nc(C)n(CC2CCCCN2CCOc2cccc(C#N)c2)n1 (stereo unspecified),-,-3.929
CCn1nc(C)c(NC(=O)C(C)C)c1C,-,-20.06
O=C1Nc2ccccc2NC12CCN(Cc1nnc(C3CC3)o1)CC2,-24.73,-3.562
Cc1c(C(C)NC(=O)Nc2ccccc2F)cnn1C (stereo unspecified),15.12,5.172
CC(NC(=O)c1cc2n(n1)CCCN(C(C)C)C2)c1cn2ccsc2n1 (stereo unspecified),9.381,-2.069
O=C(Nc1ccccc1F)C1=NN(c2ccccc2)C(=O)CN1,-,3.831
COCCOCCNS(=O)(=O)C1CS(=O)(=O)c2ccccc21 (stereo unspecified),7.244,28.5
Cc1ccc(CNC(=O)N2CCN(S(C)(=O)=O)CC2)n1C,0.5516,-10.2
CCOCCN1CCN(CCOC)CC1C (stereo unspecified),0.4033,9.496
O=C(O)C(F)(F)F.O=C(O)C(F)(F)F.[H][C@]12C[C@@H](Cn3cncn3)N(C(C)=O)[C@@]1([H])CCN(Cc1ccccn1)C2,-18.97,-27.09

From ChEMBL document CHEMBL3988442, “University of Dundee, Small-Polar-MMV Screening Library” (2021).